Reference: article PMC10066190
No constants are given. Whether binding was seen depends on the method and setting. In cells and extracts the contact can be indirect. Some binding calls cover weakened binding; strength is not graded here.

Protein sequences, listed by entry. Tags and fused reporters are not part of them.
UniProt Q12888: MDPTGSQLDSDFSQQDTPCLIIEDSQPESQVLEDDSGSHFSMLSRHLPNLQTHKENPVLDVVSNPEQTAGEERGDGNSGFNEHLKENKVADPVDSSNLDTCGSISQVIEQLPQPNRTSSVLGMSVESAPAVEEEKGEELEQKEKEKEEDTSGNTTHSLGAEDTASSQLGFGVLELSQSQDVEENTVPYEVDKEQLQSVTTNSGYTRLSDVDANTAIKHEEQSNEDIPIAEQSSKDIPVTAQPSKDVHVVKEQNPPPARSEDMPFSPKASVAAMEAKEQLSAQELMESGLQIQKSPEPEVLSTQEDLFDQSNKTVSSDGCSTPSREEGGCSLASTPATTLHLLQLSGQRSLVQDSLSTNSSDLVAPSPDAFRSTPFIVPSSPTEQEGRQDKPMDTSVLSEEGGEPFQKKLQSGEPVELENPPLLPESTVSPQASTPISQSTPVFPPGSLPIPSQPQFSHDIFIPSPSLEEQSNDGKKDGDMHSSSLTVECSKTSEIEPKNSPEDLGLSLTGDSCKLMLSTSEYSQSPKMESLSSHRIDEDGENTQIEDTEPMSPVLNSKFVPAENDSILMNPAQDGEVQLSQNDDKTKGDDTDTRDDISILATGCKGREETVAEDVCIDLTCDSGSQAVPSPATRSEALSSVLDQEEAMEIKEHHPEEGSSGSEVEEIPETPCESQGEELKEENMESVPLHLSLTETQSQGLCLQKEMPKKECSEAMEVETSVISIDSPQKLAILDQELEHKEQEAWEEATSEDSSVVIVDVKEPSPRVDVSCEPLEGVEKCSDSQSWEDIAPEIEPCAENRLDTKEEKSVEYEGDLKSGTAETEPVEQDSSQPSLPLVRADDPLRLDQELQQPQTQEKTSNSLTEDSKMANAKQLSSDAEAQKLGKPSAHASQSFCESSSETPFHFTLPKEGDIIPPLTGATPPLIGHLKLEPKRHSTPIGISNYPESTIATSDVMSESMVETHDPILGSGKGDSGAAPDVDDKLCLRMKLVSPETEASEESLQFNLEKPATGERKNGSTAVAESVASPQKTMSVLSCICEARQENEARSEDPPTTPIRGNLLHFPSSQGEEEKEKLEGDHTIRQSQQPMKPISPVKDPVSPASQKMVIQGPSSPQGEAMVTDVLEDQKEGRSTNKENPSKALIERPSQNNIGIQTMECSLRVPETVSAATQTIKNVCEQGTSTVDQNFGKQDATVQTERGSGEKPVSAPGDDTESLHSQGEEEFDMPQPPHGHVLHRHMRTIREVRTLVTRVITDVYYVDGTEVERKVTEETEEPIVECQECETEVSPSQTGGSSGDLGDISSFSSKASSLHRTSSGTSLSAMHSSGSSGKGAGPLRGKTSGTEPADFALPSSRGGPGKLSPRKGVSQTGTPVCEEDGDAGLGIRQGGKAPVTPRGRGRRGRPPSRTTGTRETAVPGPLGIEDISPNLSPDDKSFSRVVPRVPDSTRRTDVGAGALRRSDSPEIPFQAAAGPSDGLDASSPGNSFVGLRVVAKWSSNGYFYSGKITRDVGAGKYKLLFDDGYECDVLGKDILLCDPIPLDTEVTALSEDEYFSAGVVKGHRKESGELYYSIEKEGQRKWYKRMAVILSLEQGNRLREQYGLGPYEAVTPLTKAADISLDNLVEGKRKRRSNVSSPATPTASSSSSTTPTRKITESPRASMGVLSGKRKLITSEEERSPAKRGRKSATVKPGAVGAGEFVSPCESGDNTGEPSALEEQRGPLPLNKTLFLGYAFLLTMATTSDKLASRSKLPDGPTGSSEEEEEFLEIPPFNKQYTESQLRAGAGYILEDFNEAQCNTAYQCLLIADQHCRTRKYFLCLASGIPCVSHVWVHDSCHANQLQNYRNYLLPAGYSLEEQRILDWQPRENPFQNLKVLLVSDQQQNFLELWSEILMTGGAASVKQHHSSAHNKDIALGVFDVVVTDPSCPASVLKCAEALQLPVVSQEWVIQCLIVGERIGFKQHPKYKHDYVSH
UniProt O43791: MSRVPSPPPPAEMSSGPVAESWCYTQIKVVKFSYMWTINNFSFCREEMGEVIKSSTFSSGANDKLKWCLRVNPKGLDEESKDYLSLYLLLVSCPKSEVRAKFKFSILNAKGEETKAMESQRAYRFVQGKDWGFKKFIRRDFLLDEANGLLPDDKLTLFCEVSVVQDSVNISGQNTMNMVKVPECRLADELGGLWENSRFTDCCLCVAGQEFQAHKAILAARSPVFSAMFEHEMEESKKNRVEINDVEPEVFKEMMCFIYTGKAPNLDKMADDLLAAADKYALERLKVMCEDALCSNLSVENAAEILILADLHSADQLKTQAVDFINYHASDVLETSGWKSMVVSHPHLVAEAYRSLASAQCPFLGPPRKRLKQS

Biological target: 53BP1 in 293T cells (co-IP with ectopic TRABID) (UniProt Q12888)
Assay: co-IP; SPOP-53BP1 interaction in cells expressing TRABID WT or the catalytically dead mutant (Supplementary Fig. 2h); legend not shown, method taken from the only interaction method in the Methods

- binding: binds
Substance: SPOP (from UniProt O43791 1-374)
